The source of these data is article PMC8384837.

Holding throughout (settings): yeast three-hybrid, YBZ-1, SC-Leu-His + 0.5 mM 3-AT, 4 days
In test [1] the target is T1, PUM1 PUF domain R3-THE R4-TFR C935T + R936H + Q939E + N971T + H972F + Q975R (UniProt Q14671).
T1 sequence: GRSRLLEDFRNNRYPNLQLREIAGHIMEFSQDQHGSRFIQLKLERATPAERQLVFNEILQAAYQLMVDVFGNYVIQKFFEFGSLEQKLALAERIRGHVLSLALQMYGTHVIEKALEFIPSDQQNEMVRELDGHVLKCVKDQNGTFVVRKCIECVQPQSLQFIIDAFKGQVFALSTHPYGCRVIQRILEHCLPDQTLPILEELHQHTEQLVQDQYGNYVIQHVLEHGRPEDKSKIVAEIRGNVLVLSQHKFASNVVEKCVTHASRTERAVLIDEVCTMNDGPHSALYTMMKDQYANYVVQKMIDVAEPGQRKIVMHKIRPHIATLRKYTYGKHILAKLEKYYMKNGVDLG

Test [2] has as its target T2, PUM1 PUF domain R6-SWD R7-NPG N1043S + Y1044W + Q1047D + S1079N + N1080P + E1083G (Homo sapiens) (UniProt Q14671).
T2 sequence: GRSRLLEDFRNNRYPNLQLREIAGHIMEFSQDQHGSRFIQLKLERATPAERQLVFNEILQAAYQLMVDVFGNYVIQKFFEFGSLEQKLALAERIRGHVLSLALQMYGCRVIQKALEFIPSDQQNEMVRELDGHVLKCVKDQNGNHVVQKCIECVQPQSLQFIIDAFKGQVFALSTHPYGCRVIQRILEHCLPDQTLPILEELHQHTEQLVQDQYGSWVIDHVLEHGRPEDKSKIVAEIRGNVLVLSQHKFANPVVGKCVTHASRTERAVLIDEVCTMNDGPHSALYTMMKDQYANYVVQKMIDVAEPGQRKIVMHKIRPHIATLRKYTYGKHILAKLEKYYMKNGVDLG

For test [3], the target named is T3, PUM1 PUF domain R3-THE R4-TFR R7-NPG C935T + R936H + Q939E + N971T + H972F + Q975R + S1079N + N1080P + E1083G (Homo sapiens) (UniProt Q14671).
T3 sequence: T1 sequence with S252N, N253P, E256G

The target in test [4] is T4, PUM1 PUF domain R5-PHQ R6-SWD C1007P + R1008H + N1043S + Y1044W + Q1047D (UniProt Q14671).
T4 sequence: T2 sequence with C180P, R181H, N252S, P253N, G256E

The target in test [5] is T5, PUM1 PUF domain R6-SWD R7-NPG N1043S + Y1044W + Q1047D + S1079N + N1080P + E1083G (UniProt Q14671).
T5 sequence: T2 sequence

In test [6] the target is T6, PUM1 PUF domain R3-THE R4-TFR R7-NPG C935T + R936H + Q939E + N971T + H972F + Q975R + S1079N + N1080P + E1083G (UniProt Q14671).
T6 sequence: T1 sequence with S252N, N253P, E256G

Changes are numbered by the printed parent chain. The list shows a part of the results. For some assays here: At the low end of the ranking the order means little. For some assays here: The exact form of the protein is not confirmed.

For the sequence “GGCUAGAACUAGUGGAUCCCCCGGCGCCCGGCGGCUCGAGCCCGGGUAAGUUUAUUUUGUCUGCAUGCCGCCGGGCGCCAUGCCUGCAGGUCGACUCUAGAAAACAUG”, the binding signal (log2 enrichment (interaction score)) is -7.91 in test [1] and -0.77 in test [2]. With “GGCUAGAACUAGUGGAUCCCCCGGCGCCCGGCGGCUCGAGCCCGGGUAAGUUGAUAUCGUCUGCAUGCCGCCGGGCGCCAUGCCUGCAGGUCGACUCUAGAAAACAUG”, the binding signal (log2 enrichment (interaction score)) in test [3] is under -1.05. Same read-out and setting: under “GGCUAGAACUAGUGGAUCCCCCGGCGCCCGGCGGCUCGAGCCCGGGUAAGUUUUCGGCGUCUGCAUGCCGCCGGGCGCCAUGCCUGCAGGUCGACUCUAGAAAACAUG” stands -1.4. Take “GGCUAGAACUAGUGGAUCCCCCGGCGCCCGGCGGCUCGAGCCCGGGUAAGCGGCGAUUGUCUGCAUGCCGCCGGGCGCCAUGCCUGCAGGUCGACUCUAGAAAACAUG”: the binding signal (log2 enrichment (interaction score)) is -0.51 in test [3] and -7 in test [4]. “GGCUAGAACUAGUGGAUCCCCCGGCGCCCGGCGGCUCGAGCCCGGGUAAGUUGACUAAGUCUGCAUGCCGCCGGGCGCCAUGCCUGCAGGUCGACUCUAGAAAACAUG”: the binding signal (log2 enrichment (interaction score)) in test [1] was -6.66; in test [4], -7.78; in test [2], -1.41. For the sequence “GGCUAGAACUAGUGGAUCCCCCGGCGCCCGGCGGCUCGAGCCCGGGUAAGAUCAAAAAGUCUGCAUGCCGCCGGGCGCCAUGCCUGCAGGUCGACUCUAGAAAACAUG”, in test [3], the binding signal (log2 enrichment (interaction score)) was -1.3. Take “GGCUAGAACUAGUGGAUCCCCCGGCGCCCGGCGGCUCGAGCCCGGGUAAGCUGAAGAAGUCUGCAUGCCGCCGGGCGCCAUGCCUGCAGGUCGACUCUAGAAAACAUG”: the figures for the binding signal (log2 enrichment (interaction score)) in test [3] and in test [4] were under -1.74 and under -8.34, respectively. The like results for “GGCUAGAACUAGUGGAUCCCCCGGCGCCCGGCGGCUCGAGCCCGGGUAAGUAUGAAUAGUCUGCAUGCCGCCGGGCGCCAUGCCUGCAGGUCGACUCUAGAAAACAUG” were, in that order, -1.66 and under -7.6. Turning to “GGCUAGAACUAGUGGAUCCCCCGGCGCCCGGCGGCUCGAGCCCGGGUAAGCUGAUGACGUCUGCAUGCCGCCGGGCGCCAUGCCUGCAGGUCGACUCUAGAAAACAUG”, in test [3], the binding signal (log2 enrichment (interaction score)) was -1.96. On to “GGCUAGAACUAGUGGAUCCCCCGGCGCCCGGCGGCUCGAGCCCGGGUAAGUGCAGAAAGUCUGCAUGCCGCCGGGCGCCAUGCCUGCAGGUCGACUCUAGAAAACAUG”, for which the binding signal (log2 enrichment (interaction score)) in test [1] is under -6.83; in test [4] it was -7.37; in test [5], -2.24. “GGCUAGAACUAGUGGAUCCCCCGGCGCCCGGCGGCUCGAGCCCGGGUAAGCAGGGGUGGUCUGCAUGCCGCCGGGCGCCAUGCCUGCAGGUCGACUCUAGAAAACAUG”: the binding signal (log2 enrichment (interaction score)) in test [3] was -1.54. Turning to “GGCUAGAACUAGUGGAUCCCCCGGCGCCCGGCGGCUCGAGCCCGGGUAAGUGGGCAUAGUCUGCAUGCCGCCGGGCGCCAUGCCUGCAGGUCGACUCUAGAAAACAUG”, the binding signal (log2 enrichment (interaction score)) is under -6.84 in test [1], -8.22 in test [4] and -1.53 in test [2]. In the case of “GGCUAGAACUAGUGGAUCCCCCGGCGCCCGGCGGCUCGAGCCCGGGUAAGUUGACUUAGUCUGCAUGCCGCCGGGCGCCAUGCCUGCAGGUCGACUCUAGAAAACAUG”, the binding signal (log2 enrichment (interaction score)) in test [1] was -6.6; in test [4], -8.04; in test [2], -0.64. Turning to “GGCUAGAACUAGUGGAUCCCCCGGCGCCCGGCGGCUCGAGCCCGGGUAAGUCUACGUGGUCUGCAUGCCGCCGGGCGCCAUGCCUGCAGGUCGACUCUAGAAAACAUG”, the binding signal (log2 enrichment (interaction score)) was -7.09 in test [1] and -1.09 in test [2]. Take “GGCUAGAACUAGUGGAUCCCCCGGCGCCCGGCGGCUCGAGCCCGGGUAAGUCGACGAGGUCUGCAUGCCGCCGGGCGCCAUGCCUGCAGGUCGACUCUAGAAAACAUG”: the binding signal (log2 enrichment (interaction score)) in test [6] is -2.33. As for “GGCUAGAACUAGUGGAUCCCCCGGCGCCCGGCGGCUCGAGCCCGGGUAAGUGGCAGUAGUCUGCAUGCCGCCGGGCGCCAUGCCUGCAGGUCGACUCUAGAAAACAUG”, the binding signal (log2 enrichment (interaction score)) is -2.74 in test [6] and under -7.81 in test [4]. As to “GGCUAGAACUAGUGGAUCCCCCGGCGCCCGGCGGCUCGAGCCCGGGUAAGACAAGCUCGUCUGCAUGCCGCCGGGCGCCAUGCCUGCAGGUCGACUCUAGAAAACAUG”, the figures for the binding signal (log2 enrichment (interaction score)) in test [3] and in test [5] were under -1.17 and -2.32, respectively.
